Article PMC4840315

Target: insulin
Assay: far-Western, overlay or dot blot; 20 ul insulin (1 ug/ul) run on SDS-PAGE, electroblotted on nitrocellulose; membrane incubated with His-tagged wild-type IGFBP7 or fragments (1:3000 dilution), room temperature; detected with anti-His antibody and fluorescent secondary antibody (Odyssey); both purified

B1: IGFBP7-N fragment (1-171) (domain or fragment, UniProt Q16270 27-171)
chain: SSSDTCGPCEPASCPPLPPLGCLLGETRDACGCCPMCARGEGEPCGGGGAGRGYCAPGMECVKSRKRRKGKAGAAAGGPGVSGVCVCKSRYPVCGSDGTTYPSGCQLRAASQRAESRGEKAITQVSKGTCEQGPSIVTPPKDIWN
binding: binds weakly

Results are given in words; binding and its absence hold for the method and conditions named. A result given as binding can be weak or reduced; the word gives no strength.
